Assay results from US8039514B2, “Sulfonamide compounds and use thereof” (Asahi Kasei Pharma Corporation, priority 2008, dated 2011).
Some results were stated once for a whole list of compounds, not compound by compound.

Biological target: T1, human calcium-sensing receptor (CaSR) (Homo sapiens, UniProt P41180)
T1 construct: expressed in transfected cells
T1 sequence (P41180 20-1078): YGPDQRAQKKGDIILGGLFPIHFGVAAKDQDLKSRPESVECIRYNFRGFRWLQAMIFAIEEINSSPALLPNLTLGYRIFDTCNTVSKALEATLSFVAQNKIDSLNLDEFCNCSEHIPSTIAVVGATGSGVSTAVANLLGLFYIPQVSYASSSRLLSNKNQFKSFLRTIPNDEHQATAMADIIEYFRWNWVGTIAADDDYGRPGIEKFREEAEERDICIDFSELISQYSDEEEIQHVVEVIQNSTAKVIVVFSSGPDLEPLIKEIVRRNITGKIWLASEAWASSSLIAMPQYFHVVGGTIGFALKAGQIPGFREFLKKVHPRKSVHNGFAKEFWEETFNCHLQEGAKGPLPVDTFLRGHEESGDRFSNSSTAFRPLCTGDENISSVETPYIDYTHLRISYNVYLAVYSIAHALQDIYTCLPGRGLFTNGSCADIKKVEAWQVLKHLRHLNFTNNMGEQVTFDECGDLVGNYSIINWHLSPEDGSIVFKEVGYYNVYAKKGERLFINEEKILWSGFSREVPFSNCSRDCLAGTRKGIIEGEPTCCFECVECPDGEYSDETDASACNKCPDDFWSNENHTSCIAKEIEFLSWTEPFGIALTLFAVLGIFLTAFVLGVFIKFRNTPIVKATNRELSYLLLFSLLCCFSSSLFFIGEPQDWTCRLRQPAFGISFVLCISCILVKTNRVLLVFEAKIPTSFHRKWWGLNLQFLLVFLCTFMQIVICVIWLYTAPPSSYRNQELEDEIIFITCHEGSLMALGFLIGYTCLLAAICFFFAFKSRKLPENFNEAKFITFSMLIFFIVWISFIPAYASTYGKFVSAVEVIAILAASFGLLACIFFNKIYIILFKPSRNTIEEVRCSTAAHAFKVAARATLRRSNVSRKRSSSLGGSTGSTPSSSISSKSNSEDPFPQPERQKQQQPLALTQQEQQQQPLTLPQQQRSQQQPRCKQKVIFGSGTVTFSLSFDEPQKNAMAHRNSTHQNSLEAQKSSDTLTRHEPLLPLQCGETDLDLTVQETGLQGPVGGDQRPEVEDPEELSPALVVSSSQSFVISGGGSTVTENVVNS
Test: intracellular Ca assay, CaSR antagonist activity in HEK293/hCaSR cells
Format: cell-based
Conditions: Fura2-AM, inhibition of response to calcium chloride ligand solution
Outline: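 HEK293/hCaSR cells were loaded with Fura2-AM and pre-incubated with compound for 160 s at 37° C in HEPES buffer (pH 7.4, 0.8 mM CaCl2), then challenged with calcium ligand solution. Read-out was the peak 340/380 nm fluorescence ratio; inhibition is relative to no-compound (0%) and no-calcium-ligand (100%) controls.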

Compound | IC50 values according to the intracellular Ca assay (CaSR antagonist activity)
CN(C[C@H](O)CNC(C)(C)CCCc1ccsc1)S(=O)(=O)c1cc(CCCC(=O)O)cc(C(F)(F)F)c1 [Exp. 9-8, (R)-4-(3-(N-(2-hydroxy-3-(2-methyl-5-(thiophen-3-yl)pentan-2-ylamino)propyl)-N-methylsulfamoyl)-5-(trifluoromethyl)phenyl)butanoic acid] | 1.0 to 0.3 μM
CN(C[C@H](O)CNC(C)(C)CCCc1ccccc1)S(=O)(=O)c1cc(CCCC(=O)O)cc(C(F)(F)F)c1 [Exp. 9-9, (R)-4-(3-(N-(2-hydroxy-3-(2-methyl-5-phenylpentan-2-ylamino)propyl)-N-methylsulfamoyl)-5-(trifluoromethyl)phenyl)butanoic acid] | 1.0 to 0.3 μM
CN(C[C@H](O)CNC(C)(C)CCCc1ccccc1)S(=O)(=O)c1cc(C(=O)O)cc(C(F)(F)F)c1 [Exp. 9-28, (R)-3-(N-(2-hydroxy-3-(2-methyl-5-phenylpentan-2-ylamino)propyl)-N-methylsulfamoyl)-5-(trifluoromethyl)benzoic acid] | 1.0 to 0.3 μM
CN(C[C@H](O)CNC(C)(C)CCCc1ccccc1)S(=O)(=O)c1cc(CC(=O)O)cc(C(F)(F)F)c1 [Exp. 9-29, (R)-2-(3-(N-(2-hydroxy-3-(2-methyl-5-phenylpentan-2-ylamino)propyl)-N-methylsulfamoyl)-5-(trifluoromethyl)phenyl)acetic acid] | 1.0 to 0.3 μM
CC(C)c1ccc(CC(C)(C)NC[C@@H](O)CN(C)S(=O)(=O)c2cccc(-c3cccc(C(=O)O)c3)c2)cc1 [Exp. 9-31, (R)-3′-(N-(2-hydroxy-3-(1-(4-isopropylphenyl)-2-methylpropan-2-ylamino)propyl)-N-methylsulfamoyl)biphenyl-3-carboxylic acid] | 3.0 to 1.0 μM
CN(C[C@H](O)CNC(C)(C)CCCc1ccccc1)S(=O)(=O)c1cccc(-c2cccc(C(=O)O)c2)c1 [Exp. 9-32, (R)-3′-(N-(2-hydroxy-3-(2-methyl-5-phenylpentan-2-ylamino)propyl)-N-methylsulfamoyl)biphenyl-3-carboxylic acid] | 1.0 to 0.3 μM
CN(C[C@H](O)CNC(C)(C)CCCc1ccccc1)S(=O)(=O)c1cccc(-c2ccc(CCC(=O)O)cc2)c1 [Exp. 9-36, (R)-3-(3′-(N-(2-hydroxy-3-(2-methyl-5-phenylpentan-2-ylamino)propyl)-N-methylsulfamoyl)biphenyl-4-yl)propionic acid] | 1.0 to 0.3 μM
CN(C[C@H](O)CNC(C)(C)CCCc1ccsc1)S(=O)(=O)c1cccc(-c2cccc(CCC(=O)O)c2)c1 [Exp. 9-57, (R)-3-(3′-(N-(2-hydroxy-3-(2-methyl-5-(thiophen-3-yl)pentan-2-ylamino)propyl)-N-methylsulfamoyl)biphenyl-3-yl)propionic acid] | 1.0 to 0.3 μM
CN(C[C@H](O)CNC(C)(C)CCCc1ccsc1)S(=O)(=O)c1cccc(-c2ccc(CC(=O)O)cc2)c1 [Exp. 9-58, (R)-2-(3′-(N-(2-hydroxy-3-(2-methyl-5-(thiophen-3-yl)pentan-2-ylamino)propyl)-N-methylsulfamoyl)biphenyl-4-yl)acetic acid] | 1.0 to 0.3 μM
CC(C)c1ccc(CC(C)(C)NC[C@@H](O)CN(C)S(=O)(=O)c2cc(-c3ccc(CCC(=O)O)cc3)cc(C(F)(F)F)c2)cc1 [Exp. 9-76, (R)-3-(3′-(N-(2-hydroxy-3-(1-(4-isopropylphenyl)-2-methylpropan-2-ylamino)propyl)-N-methylsulfamoyl)-5′-(trifluoromethyl)biphenyl-4-yl)propionic acid] | 3.0 to 1.0 μM
CN(C[C@H](O)CNC(C)(C)CCCc1ccccc1)S(=O)(=O)c1cccc(-c2cccc(CCC(=O)O)c2)c1 [Exp. 9-77, (R)-3-(3′-(N-(2-hydroxy-3-(2-methyl-5-phenylpentan-2-ylamino)propyl)-N-methylsulfamoyl)biphenyl-3-yl)propionic acid] | 1.0 to 0.3 μM
CN(C[C@H](O)CNC(C)(C)CCCc1ccccc1)S(=O)(=O)c1cccc(-c2ccc(CC(=O)O)cc2)c1 [Exp. 9-78, (R)-2-(3′-(N-(2-hydroxy-3-(2-methyl-5-phenylpentan-2-ylamino)propyl)-N-methylsulfamoyl)biphenyl-4-yl)acetic acid] | 1.0 to 0.3 μM
CN(C[C@H](O)CNC(C)(C)CCCc1ccccc1Cl)S(=O)(=O)c1cc(-c2ccc(CCC(=O)O)cc2)cc(C(F)(F)F)c1 [Exp. 9-81, (R)-3-(3′-(N-(3-(5-(2-chlorophenyl)-2-methylpentan-2-ylamino)-2-hydroxypropyl)-N-methylsulfamoyl)-5′-(trifluoromethyl)biphenyl-4-yl)propionic acid] | 1.0 to 0.3 μM
CN(C[C@H](O)CNC(C)(C)CCCc1cccnc1)S(=O)(=O)c1cc(-c2ccc(CCC(=O)O)cc2)cc(C(F)(F)F)c1 [Exp. 9-86, (R)-3-(3′-(N-(2-hydroxy-3-(2-methyl-5-(pyridin-3-yl)pentan-2-ylamino)propyl)-N-methylsulfamoyl)-5′-(trifluoromethyl)biphenyl-4-yl)propionic acid] | 3.0 to 1.0 μM
CN(C[C@H](O)CNC(C)(C)CCCc1ccncc1)S(=O)(=O)c1cc(-c2ccc(CCC(=O)O)cc2)cc(C(F)(F)F)c1 [Exp. 9-87, (R)-3-(3′-(N-(2-hydroxy-3-(2-methyl-5-(pyridin-4-yl)pentan-2-ylamino)propyl)-N-methylsulfamoyl)-5′-(trifluoromethyl)biphenyl-4-yl)propionic acid] | 3.0 to 1.0 μM
CCc1cc(-c2ccc(CCC(=O)O)cc2)ccc1S(=O)(=O)N(C)C[C@H](O)CNC(C)(C)CCCc1ccc(F)cc1 [Exp. 9-91, (R)-3-(3′-ethyl-4′-(N-(3-(5-(4-fluorophenyl)-2-methylpentan-2-ylamino)-2-hydroxypropyl)-N-methylsulfamoyl)biphenyl-4-yl)propionic acid] | 1.0 to 0.3 μM
CCc1cc(-c2ccc(CCC(=O)O)cc2)ccc1S(=O)(=O)N(C)C[C@H](O)CNC(C)(C)CCCc1ccccn1 [Exp. 9-94, (R)-3-(3′-ethyl-4′-(N-(2-hydroxy-3-(2-methyl-5-(pyridin-2-yl)pentan-2-ylamino)propyl)-N-methylsulfamoyl)biphenyl-4-yl)propionic acid] | 3.0 to 1.0 μM
CCc1cc(-c2ccc(CCC(=O)O)cc2)ccc1S(=O)(=O)N(C)C[C@H](O)CNC(C)(C)CCCc1ccsc1 [Exp. 9-95, (R)-3-(3′-ethyl-4′-(N-(2-hydroxy-3-(2-methyl-5-(thiophen-3-yl)pentan-2-ylamino)propyl)-N-methylsulfamoyl)biphenyl-4-yl)propionic acid] | 1.0 to 0.3 μM
